Among all 390,000 compounds or so, about 820 (0.21%) were called active. The shares of active, inactive and inconclusive entries below differ from those in the screen. Calls come from the whole dose curve; as a rule, active = well fitted inhibition curve with a large enough effect; inconclusive = small, poorly fitted or top-dose-only effect, or another doubt; inactive = no such curve, though single readings can be large or run the other way. Potencies of inconclusive entries are doubtful fits and often do not repeat.
molecular target: Histone acetyltransferase KAT2A (Homo sapiens) (UniProt Q92830); test: qHTS Assay for Inhibitors of GCN5L2; conditions: GCN5L2 HAT assay, ThioGlo1 CoA-SH fluorescence; activity change, negative = inhibition: at 58.9 µM (top of the series) unless noted
Outline: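 GCN5L2 (20nM final) in 50mM HEPES, 0.1mM EDTA pH 7.5, 0.01% Tween-20 was preincubated 15 min at room temperature with compound, then given ThioGlo1 (50uM), H3(1-25) peptide (75uM) and acetyl-CoA (70uM); CoA-thiol fluorescence (Ex340/Em540) was read at 0 and 20 min.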
% is set by controls: 0 for no effect and ±100 for the full control effect; potency is the fitted concentration of half-maximal effect.

Amino acid sequences for entries named in this document (tags omitted).
UniProt Q92830, whole entry, looked up: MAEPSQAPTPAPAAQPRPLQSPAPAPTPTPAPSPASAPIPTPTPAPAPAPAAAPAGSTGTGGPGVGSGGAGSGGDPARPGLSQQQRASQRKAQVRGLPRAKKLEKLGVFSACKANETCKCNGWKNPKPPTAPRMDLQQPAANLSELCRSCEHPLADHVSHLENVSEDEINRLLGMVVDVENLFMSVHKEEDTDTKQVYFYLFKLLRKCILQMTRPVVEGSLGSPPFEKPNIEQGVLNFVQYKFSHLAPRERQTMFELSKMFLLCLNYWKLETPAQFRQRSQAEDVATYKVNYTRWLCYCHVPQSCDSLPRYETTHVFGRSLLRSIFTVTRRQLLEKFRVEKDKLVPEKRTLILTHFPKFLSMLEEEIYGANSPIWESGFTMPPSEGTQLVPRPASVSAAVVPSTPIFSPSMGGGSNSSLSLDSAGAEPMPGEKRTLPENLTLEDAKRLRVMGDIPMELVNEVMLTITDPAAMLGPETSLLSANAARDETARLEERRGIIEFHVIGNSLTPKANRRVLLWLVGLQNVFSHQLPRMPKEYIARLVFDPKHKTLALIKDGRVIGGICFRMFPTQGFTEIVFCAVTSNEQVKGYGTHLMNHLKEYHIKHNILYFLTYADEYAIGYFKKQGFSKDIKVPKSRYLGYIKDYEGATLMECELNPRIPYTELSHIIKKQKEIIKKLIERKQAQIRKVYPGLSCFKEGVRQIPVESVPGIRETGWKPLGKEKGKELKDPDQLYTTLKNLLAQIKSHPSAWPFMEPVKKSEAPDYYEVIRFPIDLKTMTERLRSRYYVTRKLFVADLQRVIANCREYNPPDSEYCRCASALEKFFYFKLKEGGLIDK

| Structure (SMILES) | Potency | activity change, negative = inhibition |
| --- | --- | --- |
| Cc1ccc(S(=O)(=O)Nc2cccc(/C=C/C(=O)O)c2)cc1 | inconclusive: 39.8 µM [inhibitor, single point] |  |
| O=C(Cn1cncn1)c1ccc(F)cc1F |  | inactive: -0.152% |
| COc1ccc(C(=O)Nc2nc3cc4c(cc3s2)OCO4)c(OC)c1 | inconclusive: 6.31 µM [inhibitor, full curve, poor fit] |  |
| CN(c1ccc(C(=O)NCc2ccncc2)cc1)S(=O)(=O)c1ccc(Cl)cc1 | inconclusive: 35.5 µM [inhibitor, single point] |  |
| Cc1ccc(NNC(=O)C2CCC2)cc1C | inconclusive: 2.82 µM [inhibitor, full curve, poor fit] |  |
| CCOC(=O)C1CCCN(C(=O)C2CCN(S(=O)(=O)c3c(C)noc3/C=C/c3ccc(C)cc3)CC2)C1 (centres undefined) |  | inactive: -4.58% |
| Cc1ccccc1-c1nn(-c2ccc(F)cc2F)cc1CNCCN(C)C |  | inactive: -0.562% |
| CC1(C)CC[C@]2(C(=O)O)CC[C@]3(C)C(=CCC4[C@@]5(C)CC[C@H](O)C(C)(C)C5[C@H](O)C[C@]43C)C2C1 (some centres undefined) | inconclusive: 14.1 µM [inhibitor, partial curve] |  |
| O=C(NCc1ccco1)c1cccn2c(=O)c3c4c(sc3nc12)CCCC4 | inconclusive: 5.01 µM [inhibitor, full curve, poor fit] |  |
| O=C1/C(=C/c2cccnc2)SC(=S)N1NS(=O)(=O)c1ccccc1 | inconclusive: 1 µM [inhibitor, single point] |  |
| CCOC(=O)c1cnc2nc(NCc3ccc(OCC)cc3)[nH]n2c1=O | inconclusive: 31.6 µM [inhibitor, partial curve] |  |
| CCCC(NC(=O)COc1cc2c(c3oc(=O)cc(C)c13)CCC(C)(C)O2)C(=O)O (centres undefined) | inconclusive: 25.1 µM [inhibitor, single point] |  |
| Cc1cc(NC(=O)CSc2ccc(-c3ccccc3)nn2)no1 | inconclusive: 7.08 µM [inhibitor, single point] |  |
| COC(=O)CC1Oc2ccc(Cl)cc2-n2cc(-c3ccc(F)cc3)nc21 (centres undefined) |  | inactive: -1.48% |
| O=C(CCN1CCC(c2ccc(Cl)s2)=N1)c1ccc(Cl)s1 |  | inactive: -2.74% |
| Cc1nnc(-c2cccc(Br)c2)c2cn(-c3ccc(Br)cc3)nc12 |  | inactive: 26.4% |
| Cc1ccc(CN(C)C(=O)c2ccc3c(c2)NC(=O)CS3)o1 |  | inactive: 1.06% |
| COc1cccc(C(=O)NC(=S)Nc2ccccc2N2CCCCC2)c1 |  | inactive: -2.05% |
| CC(C)NC(=O)C1CCN(C(=O)N2CC(C)Oc3ccccc32)CC1 (centres undefined) |  | inactive: -5.65% |
| NS(=O)(=O)c1ccc(CCNCc2ccccc2OCc2ccc(F)cc2)cc1 | inconclusive: 3.16 µM [inhibitor, single point] |  |
| COc1cc(NC(=O)c2ccc(Cl)cc2)c(OC)cc1NC(=O)CN1CCCCC1 |  | inactive: -3.87% |
| O=[N+]([O-])c1ccc(NC(=S)NCc2ccc(F)cc2)cc1 |  | inactive: -8.84% |
| O=C(O)COc1cccc(/C=C2/SC(=S)N(Cc3ccccc3)C2=O)c1 |  | inactive: -3.15% |

| Structure (SMILES) | Potency | activity change, negative = inhibition |
| --- | --- | --- |
| COCCNS(=O)(=O)c1ccc(-c2ccc(C)cc2)cc1 | inconclusive: 6.31 µM [inhibitor, single point] |  |
| COc1ccc(Cc2nnc(NC(=O)Cc3cccs3)s2)cc1OC | inconclusive: 31.6 µM [inhibitor, partial curve] |  |
| COCCn1c(C)cc(C2=NNC(=Nc3ccccc3F)SC2)c1C |  | inactive: -2.14% |
| O=c1nc2cccc3c2=c(/c1=C(\O)c1ccccc1)c1ccccc1c3=O | inconclusive: 22.4 µM [inhibitor, single point] |  |
| COCCNC(=O)c1cc2cc3ccc(OC)cc3nc2o1 | inconclusive: 22.4 µM [inhibitor, single point] |  |
| Cc1ccccc1OCCNc1ccc(C(F)(F)F)cc1[N+](=O)[O-] | inconclusive: 22.4 µM [inhibitor, partial curve, poor fit] |  |
| COc1cc(OC)cc(-c2c(C#Cc3ccsc3)c3cc(-c4ccc(OC)nc4)ccc3n2C)c1 | inconclusive: 39.8 µM [inhibitor, single point] |  |
| CC1(C)CC(=O)C=C(NCc2ccncc2)C1 | inconclusive: 1 µM [inhibitor, single point] |  |
| O=S(=O)(NCCc1nnc2ccc(SCc3c(F)cccc3Cl)nn12)c1ccccc1 |  | inactive: -2.61% |
| COC(=O)C1=C(C)N(CC2CC2)C(=NCc2cc(OC)c(OC)c(OC)c2)N[C@H]1c1ccccc1 | inconclusive: 35.5 µM [inhibitor, single point] |  |
| Cc1nnc2ccc(-c3ccc(NS(=O)(=O)c4ccccc4[N+](=O)[O-])cc3)nn12 |  | inactive: -24.4% |
| COc1cc(-c2cc(-c3ccccc3)nc(SCC(=O)Nc3nccs3)c2C#N)cc(OC)c1OC | inconclusive: 39.8 µM [inhibitor, single point] |  |
| CC1CCC2(CC1)NC(=S)N(c1ccccc1)N2 (centres undefined) |  | inconclusive: -35.2% [inhibitor] |
| Cc1ccc(-c2cc(C(=O)Nc3ccc(S(=O)(=O)Nc4onc(C)c4C)cc3)c3ccccc3n2)cc1 | inconclusive: 39.8 µM [inhibitor, single point] |  |
| N#CCC(=O)Nc1ccc(C(=O)NCCC(c2ccccc2)c2ccccc2)cc1 | inconclusive: 10 µM [inhibitor, partial curve] |  |
| C#CCOc1ccc2ccccc2c1/C=C(/C#N)c1ccc(C(=O)O)cc1 | inconclusive: 0.447 µM [inhibitor, full curve, poor fit] |  |
| Cc1cc2c(cc1S(=O)(=O)Nc1cccc(C)c1C)OCC(=O)N2 | inconclusive: 0.891 µM [inhibitor, single point] |  |
| CCCCN(C(=O)CCn1c(=O)oc2ccccc21)c1ccccc1 | inconclusive: 39.8 µM [inhibitor, single point] |  |
| CCn1c(SCC(=O)NCc2ccc(C)cc2)nnc1-c1ccncc1 | inconclusive: 3.16 µM [inhibitor, single point] |  |
| Cc1noc(C)c1C(=O)NCc1ccco1 | inconclusive: 3.98 µM [inhibitor, single point] |  |
| Cc1cc(C)c(C(=O)N2CCCC(N3CCN(c4ccc(F)cc4)CC3)C2)o1 (centres undefined) |  | inactive: -4.73% |
| Cc1ccccc1NC(=O)CCN1CCN(C)CC1 | inconclusive: 39.8 µM [inhibitor, single point] |  |
| Cc1ccc(NC(NC(=O)c2cccs2)C(Cl)(Cl)Cl)cc1C (centres undefined) | inconclusive: 25.1 µM [inhibitor, single point] |  |

Some of the entries so far, bar-delimited:
Structure (SMILES) | Potency | activity change, negative = inhibition
Cc1ccc(CN(C)C(=O)c2ccc3c(c2)NC(=O)CS3)o1 |  | inactive: 1.06%
COc1cccc(C(=O)NC(=S)Nc2ccccc2N2CCCCC2)c1 |  | inactive: -2.05%
CC(C)NC(=O)C1CCN(C(=O)N2CC(C)Oc3ccccc32)CC1 (centres undefined) |  | inactive: -5.65%
NS(=O)(=O)c1ccc(CCNCc2ccccc2OCc2ccc(F)cc2)cc1 | inconclusive: 3.16 µM [inhibitor, single point] | 
COc1cc(NC(=O)c2ccc(Cl)cc2)c(OC)cc1NC(=O)CN1CCCCC1 |  | inactive: -3.87%
O=[N+]([O-])c1ccc(NC(=S)NCc2ccc(F)cc2)cc1 |  | inactive: -8.84%
O=C(O)COc1cccc(/C=C2/SC(=S)N(Cc3ccccc3)C2=O)c1 |  | inactive: -3.15%
COCCNS(=O)(=O)c1ccc(-c2ccc(C)cc2)cc1 | inconclusive: 6.31 µM [inhibitor, single point] | 
COc1ccc(Cc2nnc(NC(=O)Cc3cccs3)s2)cc1OC | inconclusive: 31.6 µM [inhibitor, partial curve] | 
COCCn1c(C)cc(C2=NNC(=Nc3ccccc3F)SC2)c1C |  | inactive: -2.14%
O=c1nc2cccc3c2=c(/c1=C(\O)c1ccccc1)c1ccccc1c3=O | inconclusive: 22.4 µM [inhibitor, single point] | 
COCCNC(=O)c1cc2cc3ccc(OC)cc3nc2o1 | inconclusive: 22.4 µM [inhibitor, single point] | 
Cc1ccccc1OCCNc1ccc(C(F)(F)F)cc1[N+](=O)[O-] | inconclusive: 22.4 µM [inhibitor, partial curve, poor fit] | 
COc1cc(OC)cc(-c2c(C#Cc3ccsc3)c3cc(-c4ccc(OC)nc4)ccc3n2C)c1 | inconclusive: 39.8 µM [inhibitor, single point] | 
CC1(C)CC(=O)C=C(NCc2ccncc2)C1 | inconclusive: 1 µM [inhibitor, single point] | 
O=S(=O)(NCCc1nnc2ccc(SCc3c(F)cccc3Cl)nn12)c1ccccc1 |  | inactive: -2.61%

Carrying on:

| Structure (SMILES) | Potency | activity change, negative = inhibition |
| --- | --- | --- |
| NS(=O)(=O)c1cccc2c1c([N+](=O)[O-])cc1[nH]c(=O)c(=O)[nH]c12 | inconclusive: 28.2 µM [inhibitor, single point] |  |
| COc1ccc(-c2csc(N3C(=N)SCC3=O)n2)cc1 | inconclusive: 3.98 µM [inhibitor, single point] |  |
| Cc1cc(C)c2cc(CN(Cc3ccco3)C(=S)NCC3CCCO3)c(=O)[nH]c2c1 (centres undefined) |  | inactive: -18.9% |
| O=C(CSc1nccn1Cc1ccco1)Nc1ccccc1 |  | inactive: -16.3% |
| COc1ccc(Nc2nc(NCc3ccco3)nc(N/N=C/c3ccccc3Cl)n2)cc1 | inconclusive: 39.8 µM [inhibitor, single point] |  |
| Cc1cccc(C(=O)O/N=C(\N)Cc2cccc3ccccc23)c1 | inconclusive: 3.98 µM [inhibitor, single point] |  |
| COc1ccc(-c2c[n+](CC(=O)N3c4ccccc4Sc4ccccc43)c3n2CCC3)cc1 | inconclusive: 8.91 µM [inhibitor, single point] |  |
| CC(=O)c1ccc(OCC(C)Oc2ccc(C#N)cc2)cc1 (centres undefined) | inconclusive: 25.1 µM [inhibitor, single point] |  |
| Cc1cnc(C(=O)OCC(=O)Nc2ccc(Cl)cc2)cn1 | inconclusive: 7.08 µM [inhibitor, single point] |  |
| Cc1ccc([C@H]2C(C(=O)O)=CC[C@@H](c3ccc(Cl)cc3)N2S(=O)(=O)c2ccccc2C)cc1 | inconclusive: 31.6 µM [inhibitor, single point] |  |
| NC(=O)c1c(NC(=O)CSc2nnc(-c3ccco3)n2N)sc2c1CCCC2 | inconclusive: 39.8 µM [inhibitor, single point] |  |
| Cc1ccc(CN2C(=O)CSC2c2ccccc2F)cc1 (centres undefined) | inconclusive: 6.31 µM [inhibitor, partial curve, poor fit] |  |
| O=C(O)CCc1ccc(-c2ccccc2)o1 | inconclusive: 15.8 µM [inhibitor, partial curve, poor fit] |  |
| O=C(CN1C(=O)NC2(CCCC2)C1=O)Nc1cc(Cl)ccc1N1CCCC1 | inconclusive: 0.562 µM [inhibitor, full curve] |  |
| Cc1ccc(C(=O)OCC(=O)Nc2sc3c(c2C#N)CCCCC3)cc1NC(=O)c1ccco1 | inconclusive: 2 µM [inhibitor, single point] |  |
| COc1ccccc1-n1c(SCC(=O)Nc2ccc(Br)cc2)nc(O)cc1=O | inconclusive: 28.2 µM [inhibitor, single point] |  |
| O=C(Nc1nc2c(F)cc(F)cc2s1)c1ccc([N+](=O)[O-])o1 | inconclusive: 7.08 µM [inhibitor, single point] |  |
| O=[N+]([O-])c1cccc2c[nH]nc12 | inconclusive: 25.1 µM [inhibitor, partial curve, poor fit] |  |
| Cc1ccc(CN2CCN(CC(=O)N/N=C/c3ccccc3F)CC2)cc1 |  | inactive: -1.71% |
| COCCCn1c(SCc2nnc(-c3ccccc3)o2)nc2sc3c(c2c1=O)CCC3 |  | inactive: -10.8% |
| CCOc1ccc2oc(=O)cc(CN3CCN(C(=O)c4cccc(Cl)c4)CC3)c2c1 |  | inactive: 5.48% |
| CC(=O)N1CCC2(CCCN(Cc3ccccc3)C2)CC1 | inconclusive: 6.31 µM [inhibitor, single point] |  |
| Cc1ccc(C)c(Nc2nn3c(=O)c4ccc(C(=O)N(C)Cc5ccccc5)cc4nc3s2)c1 |  | inactive: 8.18% |

Two compounds drawn at random from the list so far, as already listed:

| Structure (SMILES) | Potency | activity change, negative = inhibition |
| --- | --- | --- |
| NC(=O)c1c(NC(=O)CSc2nnc(-c3ccco3)n2N)sc2c1CCCC2 | inconclusive: 39.8 µM [inhibitor, single point] |  |
| O=c1nc2cccc3c2=c(/c1=C(\O)c1ccccc1)c1ccccc1c3=O | inconclusive: 22.4 µM [inhibitor, single point] |  |
